# Results taken from the supplement of paper PMC7666118.
# Chains of the proteins cited; added tags and fusions are not shown. Lines headed by an entry give the natural chain unless they say otherwise; changes in a name come on top.
# UniProt O75132: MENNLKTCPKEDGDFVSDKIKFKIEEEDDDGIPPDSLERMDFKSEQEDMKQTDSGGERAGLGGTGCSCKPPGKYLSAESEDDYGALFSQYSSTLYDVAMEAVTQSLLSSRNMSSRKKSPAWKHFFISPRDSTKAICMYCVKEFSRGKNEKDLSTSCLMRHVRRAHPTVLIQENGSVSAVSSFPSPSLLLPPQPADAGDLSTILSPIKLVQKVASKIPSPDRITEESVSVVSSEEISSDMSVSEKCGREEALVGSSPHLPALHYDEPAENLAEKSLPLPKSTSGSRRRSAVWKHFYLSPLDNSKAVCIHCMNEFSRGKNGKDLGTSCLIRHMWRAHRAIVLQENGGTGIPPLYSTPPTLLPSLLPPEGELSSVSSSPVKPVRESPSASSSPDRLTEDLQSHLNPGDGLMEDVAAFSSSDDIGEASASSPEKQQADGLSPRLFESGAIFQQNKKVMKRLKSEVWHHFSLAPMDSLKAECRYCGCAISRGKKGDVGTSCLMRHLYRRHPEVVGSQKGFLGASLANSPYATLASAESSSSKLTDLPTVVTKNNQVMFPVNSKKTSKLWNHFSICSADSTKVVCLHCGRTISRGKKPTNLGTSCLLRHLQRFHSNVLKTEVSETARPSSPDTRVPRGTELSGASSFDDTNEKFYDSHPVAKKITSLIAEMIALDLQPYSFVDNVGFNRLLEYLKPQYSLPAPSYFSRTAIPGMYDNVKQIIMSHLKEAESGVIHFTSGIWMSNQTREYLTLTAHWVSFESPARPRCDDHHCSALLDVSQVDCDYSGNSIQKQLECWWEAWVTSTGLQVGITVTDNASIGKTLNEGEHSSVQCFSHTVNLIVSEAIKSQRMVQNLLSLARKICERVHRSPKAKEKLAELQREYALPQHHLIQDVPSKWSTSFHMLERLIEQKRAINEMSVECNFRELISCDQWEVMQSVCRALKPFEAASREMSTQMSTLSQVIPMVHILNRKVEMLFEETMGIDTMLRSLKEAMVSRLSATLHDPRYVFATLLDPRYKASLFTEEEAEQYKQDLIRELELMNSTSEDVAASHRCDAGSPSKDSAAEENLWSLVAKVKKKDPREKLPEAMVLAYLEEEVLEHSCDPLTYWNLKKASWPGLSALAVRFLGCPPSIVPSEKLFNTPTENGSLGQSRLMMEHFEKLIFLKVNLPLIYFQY
# UniProt Q709C8: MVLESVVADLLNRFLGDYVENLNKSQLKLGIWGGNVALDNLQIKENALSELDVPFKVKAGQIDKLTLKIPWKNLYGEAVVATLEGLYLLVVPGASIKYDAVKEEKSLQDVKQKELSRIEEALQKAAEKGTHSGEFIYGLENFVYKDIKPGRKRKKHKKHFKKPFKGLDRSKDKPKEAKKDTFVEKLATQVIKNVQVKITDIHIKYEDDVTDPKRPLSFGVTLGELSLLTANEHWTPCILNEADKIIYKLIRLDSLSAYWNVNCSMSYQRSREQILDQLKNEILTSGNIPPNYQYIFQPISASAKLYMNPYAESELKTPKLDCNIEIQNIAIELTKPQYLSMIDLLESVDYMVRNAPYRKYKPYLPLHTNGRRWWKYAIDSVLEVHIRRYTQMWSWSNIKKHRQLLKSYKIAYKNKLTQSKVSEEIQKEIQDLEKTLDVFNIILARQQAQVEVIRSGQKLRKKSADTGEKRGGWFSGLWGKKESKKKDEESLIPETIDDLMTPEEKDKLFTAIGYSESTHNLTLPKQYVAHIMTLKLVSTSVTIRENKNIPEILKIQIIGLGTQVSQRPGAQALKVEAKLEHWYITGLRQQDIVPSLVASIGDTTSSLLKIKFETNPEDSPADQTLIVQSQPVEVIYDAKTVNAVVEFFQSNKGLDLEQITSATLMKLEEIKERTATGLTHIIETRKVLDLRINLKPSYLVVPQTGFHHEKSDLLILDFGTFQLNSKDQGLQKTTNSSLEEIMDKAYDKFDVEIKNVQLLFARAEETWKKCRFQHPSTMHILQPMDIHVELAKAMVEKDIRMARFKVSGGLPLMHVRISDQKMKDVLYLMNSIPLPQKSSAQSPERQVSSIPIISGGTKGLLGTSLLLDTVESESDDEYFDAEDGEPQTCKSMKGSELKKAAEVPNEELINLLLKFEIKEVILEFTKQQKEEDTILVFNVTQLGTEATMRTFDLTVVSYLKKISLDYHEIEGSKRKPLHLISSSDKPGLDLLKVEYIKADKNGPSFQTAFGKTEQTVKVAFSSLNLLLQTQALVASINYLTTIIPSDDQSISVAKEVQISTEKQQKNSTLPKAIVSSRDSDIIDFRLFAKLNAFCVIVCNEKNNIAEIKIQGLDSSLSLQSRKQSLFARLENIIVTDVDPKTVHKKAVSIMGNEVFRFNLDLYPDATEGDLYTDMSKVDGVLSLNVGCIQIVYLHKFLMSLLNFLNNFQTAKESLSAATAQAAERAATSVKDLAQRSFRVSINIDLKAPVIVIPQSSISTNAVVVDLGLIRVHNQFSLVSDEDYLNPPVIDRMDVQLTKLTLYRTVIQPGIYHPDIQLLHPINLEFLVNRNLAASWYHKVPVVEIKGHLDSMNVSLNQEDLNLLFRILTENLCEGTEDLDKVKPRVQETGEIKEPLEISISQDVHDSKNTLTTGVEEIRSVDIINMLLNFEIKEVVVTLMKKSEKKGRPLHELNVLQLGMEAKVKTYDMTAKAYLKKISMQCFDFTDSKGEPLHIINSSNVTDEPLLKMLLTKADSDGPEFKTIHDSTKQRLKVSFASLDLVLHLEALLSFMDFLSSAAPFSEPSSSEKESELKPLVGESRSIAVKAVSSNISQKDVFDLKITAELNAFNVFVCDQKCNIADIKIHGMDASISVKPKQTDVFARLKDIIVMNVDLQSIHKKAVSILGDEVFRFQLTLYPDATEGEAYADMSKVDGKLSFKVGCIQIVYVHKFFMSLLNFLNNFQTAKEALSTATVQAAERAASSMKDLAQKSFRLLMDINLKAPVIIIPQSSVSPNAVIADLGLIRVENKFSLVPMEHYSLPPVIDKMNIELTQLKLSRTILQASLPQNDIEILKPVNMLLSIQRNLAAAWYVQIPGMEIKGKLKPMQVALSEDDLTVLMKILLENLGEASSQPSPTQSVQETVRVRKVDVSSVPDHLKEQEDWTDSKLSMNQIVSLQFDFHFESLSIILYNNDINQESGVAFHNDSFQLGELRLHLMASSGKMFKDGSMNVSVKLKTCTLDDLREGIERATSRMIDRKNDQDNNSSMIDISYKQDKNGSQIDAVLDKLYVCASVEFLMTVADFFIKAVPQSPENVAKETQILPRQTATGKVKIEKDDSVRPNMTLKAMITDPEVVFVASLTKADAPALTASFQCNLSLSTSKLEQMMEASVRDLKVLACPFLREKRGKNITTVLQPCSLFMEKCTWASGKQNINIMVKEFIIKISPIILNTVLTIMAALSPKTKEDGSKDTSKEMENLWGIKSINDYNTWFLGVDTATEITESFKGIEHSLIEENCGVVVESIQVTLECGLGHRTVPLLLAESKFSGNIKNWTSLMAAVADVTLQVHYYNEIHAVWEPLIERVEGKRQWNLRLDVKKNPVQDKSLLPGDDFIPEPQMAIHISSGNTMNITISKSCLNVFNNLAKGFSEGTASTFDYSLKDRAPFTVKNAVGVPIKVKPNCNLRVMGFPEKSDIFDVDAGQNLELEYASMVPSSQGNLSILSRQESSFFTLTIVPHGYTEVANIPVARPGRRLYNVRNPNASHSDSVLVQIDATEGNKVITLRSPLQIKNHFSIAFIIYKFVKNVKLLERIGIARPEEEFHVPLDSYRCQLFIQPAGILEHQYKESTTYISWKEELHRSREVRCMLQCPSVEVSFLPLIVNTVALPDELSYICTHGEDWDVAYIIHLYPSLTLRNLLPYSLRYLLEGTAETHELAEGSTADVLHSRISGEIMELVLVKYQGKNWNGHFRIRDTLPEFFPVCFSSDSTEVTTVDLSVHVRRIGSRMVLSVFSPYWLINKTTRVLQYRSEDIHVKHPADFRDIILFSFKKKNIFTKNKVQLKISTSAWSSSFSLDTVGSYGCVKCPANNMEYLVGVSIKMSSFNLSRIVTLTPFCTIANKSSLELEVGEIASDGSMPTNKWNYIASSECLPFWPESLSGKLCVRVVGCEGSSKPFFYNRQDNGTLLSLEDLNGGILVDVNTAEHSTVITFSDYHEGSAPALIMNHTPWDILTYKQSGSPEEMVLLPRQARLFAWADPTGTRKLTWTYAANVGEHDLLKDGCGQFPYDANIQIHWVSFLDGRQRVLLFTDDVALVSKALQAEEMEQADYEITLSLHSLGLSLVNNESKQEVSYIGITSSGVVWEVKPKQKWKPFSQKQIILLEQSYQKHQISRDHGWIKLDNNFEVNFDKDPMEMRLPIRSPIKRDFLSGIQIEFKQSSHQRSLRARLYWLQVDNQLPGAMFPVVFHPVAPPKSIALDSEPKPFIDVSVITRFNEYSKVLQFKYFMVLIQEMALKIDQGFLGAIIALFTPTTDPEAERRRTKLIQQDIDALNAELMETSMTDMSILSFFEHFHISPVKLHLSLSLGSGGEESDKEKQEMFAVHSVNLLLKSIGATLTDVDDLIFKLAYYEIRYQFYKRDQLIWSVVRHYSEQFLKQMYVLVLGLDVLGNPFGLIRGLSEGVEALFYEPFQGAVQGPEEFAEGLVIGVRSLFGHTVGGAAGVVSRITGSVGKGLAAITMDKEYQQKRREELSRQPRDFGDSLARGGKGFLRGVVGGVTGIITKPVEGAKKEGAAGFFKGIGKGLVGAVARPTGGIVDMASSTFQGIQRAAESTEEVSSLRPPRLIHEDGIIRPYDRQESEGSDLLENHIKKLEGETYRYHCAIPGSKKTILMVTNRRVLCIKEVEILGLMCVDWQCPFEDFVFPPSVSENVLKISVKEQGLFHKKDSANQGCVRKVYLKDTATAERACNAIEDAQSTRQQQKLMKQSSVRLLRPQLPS
# UniProt Q9GZM5: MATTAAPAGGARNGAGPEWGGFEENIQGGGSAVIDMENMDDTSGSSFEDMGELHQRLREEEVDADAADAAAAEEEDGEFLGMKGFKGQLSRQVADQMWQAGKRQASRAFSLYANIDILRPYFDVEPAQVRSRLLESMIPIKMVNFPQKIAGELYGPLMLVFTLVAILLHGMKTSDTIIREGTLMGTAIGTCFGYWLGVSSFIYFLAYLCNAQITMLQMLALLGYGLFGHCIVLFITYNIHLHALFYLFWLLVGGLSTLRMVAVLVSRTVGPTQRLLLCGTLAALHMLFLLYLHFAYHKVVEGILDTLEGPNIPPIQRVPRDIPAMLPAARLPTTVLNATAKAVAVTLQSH
# UniProt Q9BYJ9: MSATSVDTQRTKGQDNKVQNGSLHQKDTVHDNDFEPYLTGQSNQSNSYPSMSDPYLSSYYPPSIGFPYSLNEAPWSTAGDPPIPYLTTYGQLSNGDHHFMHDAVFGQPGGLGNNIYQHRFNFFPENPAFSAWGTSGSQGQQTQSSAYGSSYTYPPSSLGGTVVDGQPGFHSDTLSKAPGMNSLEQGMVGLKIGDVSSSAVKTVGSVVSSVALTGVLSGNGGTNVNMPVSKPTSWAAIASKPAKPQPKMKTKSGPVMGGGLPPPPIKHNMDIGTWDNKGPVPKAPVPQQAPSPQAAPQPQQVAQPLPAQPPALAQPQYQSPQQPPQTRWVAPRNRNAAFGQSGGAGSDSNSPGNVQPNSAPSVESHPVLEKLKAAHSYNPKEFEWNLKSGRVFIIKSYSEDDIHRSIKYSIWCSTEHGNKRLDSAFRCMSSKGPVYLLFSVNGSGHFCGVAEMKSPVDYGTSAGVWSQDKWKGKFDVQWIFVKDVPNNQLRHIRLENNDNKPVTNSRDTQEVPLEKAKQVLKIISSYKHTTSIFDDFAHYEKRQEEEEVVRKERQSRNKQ
# UniProt Q15836, whole entry: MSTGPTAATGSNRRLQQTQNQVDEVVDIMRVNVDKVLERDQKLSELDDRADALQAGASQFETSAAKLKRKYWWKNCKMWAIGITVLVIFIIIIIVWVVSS
# UniProt Q8N9V3: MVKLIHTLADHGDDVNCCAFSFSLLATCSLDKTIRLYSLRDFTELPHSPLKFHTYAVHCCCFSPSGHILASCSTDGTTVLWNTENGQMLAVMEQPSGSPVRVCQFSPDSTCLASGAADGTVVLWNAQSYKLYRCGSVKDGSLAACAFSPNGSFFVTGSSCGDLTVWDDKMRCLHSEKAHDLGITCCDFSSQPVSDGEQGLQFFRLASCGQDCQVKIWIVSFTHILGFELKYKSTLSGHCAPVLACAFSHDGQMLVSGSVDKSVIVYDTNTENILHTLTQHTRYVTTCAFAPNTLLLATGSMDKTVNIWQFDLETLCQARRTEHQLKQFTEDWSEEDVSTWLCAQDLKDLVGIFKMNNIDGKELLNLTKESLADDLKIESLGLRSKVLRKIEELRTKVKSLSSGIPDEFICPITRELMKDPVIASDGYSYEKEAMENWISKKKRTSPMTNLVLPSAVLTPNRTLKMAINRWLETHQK
# This is one part of the list.
# Compound: COc1ccc(Cn2ccc3ccc(C(=O)NO)cc32)cc1
# Assay: dose-dependent thermal stabilisation call (2D-TPP, DLPTP, 10% FDR) (binary (1 = stabilised)); higher = stabilised by the compound
# Settings: system: HL-60 intact cells; concentration range 0.04-10 µM
row,Target,dose-dependent thermal stabilisation call
1,ZGPAT (UniProt Q8N5A5),inactive: 0
2,VCP (UniProt P55072),inactive: 0
3,ZBED4 (UniProt O75132),inactive: 0
4,XPO5 (UniProt Q9HAV4),inactive: 0
5,VPS13B (UniProt Q7Z7G8),inactive: 0
6,ZCRB1 (UniProt Q8TBF4),inactive: 0
7,WDR44 (UniProt Q5JSH3),inactive: 0
8,VARS2 (UniProt Q5ST30),inactive: 0
9,VPS13C (UniProt Q709C8),inactive: 0
10,WDFY4 (UniProt Q6ZS81),inactive: 0
11,YIPF3 (UniProt Q9GZM5),inactive: 0
12,ZCCHC4 (UniProt Q9H5U6),inactive: 0
13,WDR77 (UniProt Q9BQA1),inactive: 0
14,YTHDF1 (UniProt Q9BYJ9),inactive: 0
15,VAMP3 (UniProt Q15836),inactive: 0
16,WEE1 (UniProt P30291),inactive: 0
17,WDTC1 (UniProt Q8N5D0),inactive: 0
18,XPO7 (UniProt Q9UIA9),inactive: 0
19,ZNF146 (UniProt Q15072),inactive: 0

# Individual results from the entries so far.
# In dose-dependent thermal stabilisation call, YIPF3 (UniProt Q9GZM5) shows inactive: 0
# In dose-dependent thermal stabilisation call, WDTC1 (UniProt Q8N5D0) shows inactive: 0

# Later entries

row,Target,dose-dependent thermal stabilisation call
1,WDR23 (UniProt Q8TEB1),inactive: 0
2,YJ005_HUMAN (UniProt Q6ZSR9),inactive: 0
3,ZFYVE19 (UniProt Q96K21),inactive: 0
4,VAMP7 (UniProt P51809),inactive: 0
5,YWHAG (UniProt P61981),inactive: 0
6,VPS4A (UniProt Q9UN37),inactive: 0
7,XK (UniProt P51811),inactive: 0
8,YIPF6 (UniProt Q96EC8),inactive: 0
9,ZNF143 (UniProt P52747),inactive: 0
10,UTP18 (UniProt Q9Y5J1),inactive: 0
11,VEZT (UniProt Q9HBM0),inactive: 0
12,YWHAZ (UniProt P63104),inactive: 0
13,VAT1 (UniProt Q99536),inactive: 0
14,WDR48 (UniProt Q8TAF3),inactive: 0
15,ZEB1 (UniProt P37275),inactive: 0
16,VPS26A (UniProt O75436),inactive: 0
17,ZEB2 (UniProt O60315),inactive: 0
18,WDSUB1 (UniProt Q8N9V3),inactive: 0
